These are yes or no findings as the source states them, for the method shown. Binding seen in cells or lysates may run through a third protein.
Biological target: Flag-RpL22 (UniProt P50887)
Experiment: co-IP; lysates of stably transfected S2 cells expressing Flag-Edis-p or Flag-RpL22; anti-Flag immunoprecipitation; immunoblot with anti-Relish and anti-Flag; lysis buffer 20 mM Tris-HCl pH 7.6, 150 mM NaCl, 2 mM EDTA, 10% glycerol, 1% Triton X-100, 1 mM DTT

Protein sequences, listed by entry. Tags and fused reporters are not part of them.
UniProt P50887: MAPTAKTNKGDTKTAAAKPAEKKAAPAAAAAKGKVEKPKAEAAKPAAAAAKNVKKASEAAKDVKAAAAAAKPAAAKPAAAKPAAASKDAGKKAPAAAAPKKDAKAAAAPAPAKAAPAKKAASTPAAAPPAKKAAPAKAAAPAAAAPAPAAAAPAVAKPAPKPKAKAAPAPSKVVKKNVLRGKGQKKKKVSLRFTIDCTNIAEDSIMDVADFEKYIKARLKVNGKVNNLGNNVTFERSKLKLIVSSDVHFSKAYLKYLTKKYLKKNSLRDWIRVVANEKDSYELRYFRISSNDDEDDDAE

binding: no binding
B1: endogenous Relish (protein, UniProt Q94527 1-971)
chain: MNMNQYYDLDNGKNVMFMNDASSTSGYSSSTSPNSTNRSFSPAHSPKTMELQTDFANLNLPGGNSPHQPPMANSPYQNQLLNNGGICQLGATNLINSTGVSFGVANVTSFGNMYMDHQYFVPAPATVPPSQNFGYHQNGLASDGDIKHVPQLRIVEQPVEKFRFRYKSEMHGTHGSLNGANSKRTPKTFPEVTLCNYDGPAVIRCSLFQTNLDSPHSHQLVVRKDDRDVCDPHDLHVSKERGYVAQFINMGIIHTAKKYIFEELCKKKQDRLVFQMNRRELSHKQLQELHQETEREAKDMNLNQVRLCFEAFKIEDNGAWVPLAPPVYSNAINNRKSAQTGELRIVRLSKPTGGVMGNDELILLVEKVSKKNIKVRFFEEDEDGETVWEAYAKFRESDVHHQYAIVCQTPPYKDKDVDREVNVYIELIRPSDDERSFPALPFRYKPRSVIVSRKRRRTGSSANSSSSGTESSNNSLDLPKTLGLAQPPNGLPNLSQHDQTISEEFGREKHLNEFIASEDFRKLIEHNSSDLEKICQLDMGELQHDGHNRAEVPSHRNRTIKCLDDLFEIYKQDRISPIKISHHKVEKWFIEHALNNYNRDTLLHEVISHKKDKLKLAIQTIQVMNYFNLKDVVNSTLNADGDSALHVACQQDRAHYIRPLLGMGCNPNLKNNAGNTPLHVAVKEEHLSCVESFLNGVPTVQLDLSLTNDDGLTPLHMAIRQNKYDVAKKLISYDRTSISVANTMDGNNALHMAVLEQSVELLVLILDAQNENLTDILQAQNAAGHTPLELAERKANDRVVQLLKNVYPEKGELAMTWIPCKVKEEIDSSSDESSDAGQLEIKSEEMDIETKDEDSVELDLSSGPRRQKDESSRDTEMDNNKLQLLLKNKFIYDRLCSLLNQPLGHGSDPQDRKWMQLARQTHLKQFAFIWLGAEDLLDHVKRKGASVEFSTFARALQAVDPQAYALLVNPT
